This is one part of the list. Most entries show no effect beyond the scatter of the controls.

By UniProt entry, the sequences of proteins in these tests, tags left out. Where a name states a change or a piece, a line headed by the entry shows the natural chain unless it says otherwise.
UniProt O75177, whole entry: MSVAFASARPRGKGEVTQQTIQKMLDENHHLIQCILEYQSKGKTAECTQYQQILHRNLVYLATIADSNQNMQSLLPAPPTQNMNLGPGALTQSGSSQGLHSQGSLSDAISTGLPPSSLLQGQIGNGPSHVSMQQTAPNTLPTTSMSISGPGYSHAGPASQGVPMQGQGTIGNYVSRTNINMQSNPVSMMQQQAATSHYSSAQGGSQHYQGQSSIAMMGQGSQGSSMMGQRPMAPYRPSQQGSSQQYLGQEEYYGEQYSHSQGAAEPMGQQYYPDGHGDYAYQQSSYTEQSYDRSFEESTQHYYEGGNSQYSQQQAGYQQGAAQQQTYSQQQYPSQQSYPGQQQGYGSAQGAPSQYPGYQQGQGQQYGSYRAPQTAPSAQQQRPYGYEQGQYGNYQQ
UniProt O60313: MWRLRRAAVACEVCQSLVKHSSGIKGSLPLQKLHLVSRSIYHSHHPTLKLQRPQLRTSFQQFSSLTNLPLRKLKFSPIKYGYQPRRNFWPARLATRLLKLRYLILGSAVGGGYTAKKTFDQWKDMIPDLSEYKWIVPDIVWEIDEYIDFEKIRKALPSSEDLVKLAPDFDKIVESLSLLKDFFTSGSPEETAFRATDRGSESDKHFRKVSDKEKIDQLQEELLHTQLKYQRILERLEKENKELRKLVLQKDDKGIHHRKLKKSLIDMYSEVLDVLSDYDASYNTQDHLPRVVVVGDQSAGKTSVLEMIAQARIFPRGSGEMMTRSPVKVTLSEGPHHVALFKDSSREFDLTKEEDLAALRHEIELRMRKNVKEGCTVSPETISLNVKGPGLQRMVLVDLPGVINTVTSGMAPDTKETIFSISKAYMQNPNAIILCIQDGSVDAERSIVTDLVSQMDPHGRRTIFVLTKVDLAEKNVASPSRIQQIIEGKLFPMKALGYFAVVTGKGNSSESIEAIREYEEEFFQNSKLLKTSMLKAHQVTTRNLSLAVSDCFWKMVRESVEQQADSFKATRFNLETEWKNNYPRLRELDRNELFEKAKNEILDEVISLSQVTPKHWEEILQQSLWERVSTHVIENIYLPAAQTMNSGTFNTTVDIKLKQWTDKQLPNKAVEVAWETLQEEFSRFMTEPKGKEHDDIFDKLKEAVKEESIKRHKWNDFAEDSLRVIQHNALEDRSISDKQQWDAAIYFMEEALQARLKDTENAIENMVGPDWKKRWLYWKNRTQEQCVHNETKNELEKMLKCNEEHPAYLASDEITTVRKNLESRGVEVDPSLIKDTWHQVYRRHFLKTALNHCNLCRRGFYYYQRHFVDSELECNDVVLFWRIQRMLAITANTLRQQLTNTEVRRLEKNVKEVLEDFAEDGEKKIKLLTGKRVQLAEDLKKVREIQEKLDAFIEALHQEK
UniProt O43665: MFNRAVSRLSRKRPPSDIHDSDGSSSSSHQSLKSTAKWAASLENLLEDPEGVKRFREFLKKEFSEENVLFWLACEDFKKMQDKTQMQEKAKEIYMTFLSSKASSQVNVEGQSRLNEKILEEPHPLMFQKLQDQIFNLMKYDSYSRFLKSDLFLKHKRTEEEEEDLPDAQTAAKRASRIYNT
UniProt O60779: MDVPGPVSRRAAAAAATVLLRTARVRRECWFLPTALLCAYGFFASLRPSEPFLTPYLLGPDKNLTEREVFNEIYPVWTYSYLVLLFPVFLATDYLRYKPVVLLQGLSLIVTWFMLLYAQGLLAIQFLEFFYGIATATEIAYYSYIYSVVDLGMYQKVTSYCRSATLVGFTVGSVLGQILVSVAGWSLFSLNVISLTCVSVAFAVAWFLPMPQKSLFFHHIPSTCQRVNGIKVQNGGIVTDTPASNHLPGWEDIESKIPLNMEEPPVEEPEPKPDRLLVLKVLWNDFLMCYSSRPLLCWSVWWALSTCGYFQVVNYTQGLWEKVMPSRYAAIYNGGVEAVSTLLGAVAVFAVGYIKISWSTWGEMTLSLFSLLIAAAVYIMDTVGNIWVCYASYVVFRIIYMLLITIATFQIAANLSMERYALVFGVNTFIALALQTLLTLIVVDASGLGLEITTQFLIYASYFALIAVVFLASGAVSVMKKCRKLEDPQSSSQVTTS
UniProt O75419: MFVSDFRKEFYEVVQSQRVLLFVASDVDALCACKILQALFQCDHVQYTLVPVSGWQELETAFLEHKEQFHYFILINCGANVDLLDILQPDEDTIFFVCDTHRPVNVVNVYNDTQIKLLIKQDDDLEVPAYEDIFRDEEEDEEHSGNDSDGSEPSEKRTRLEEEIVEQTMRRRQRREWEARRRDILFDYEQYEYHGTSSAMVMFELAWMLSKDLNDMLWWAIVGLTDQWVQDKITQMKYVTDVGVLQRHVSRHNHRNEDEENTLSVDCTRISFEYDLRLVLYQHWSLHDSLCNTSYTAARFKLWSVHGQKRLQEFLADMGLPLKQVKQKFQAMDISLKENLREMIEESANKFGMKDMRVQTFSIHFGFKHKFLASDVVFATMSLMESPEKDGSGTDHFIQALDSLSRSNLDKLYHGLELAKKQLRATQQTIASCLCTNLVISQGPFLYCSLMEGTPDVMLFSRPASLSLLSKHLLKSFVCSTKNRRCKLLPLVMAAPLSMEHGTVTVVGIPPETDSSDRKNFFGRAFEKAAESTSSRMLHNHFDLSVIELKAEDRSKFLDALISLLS
UniProt O75145: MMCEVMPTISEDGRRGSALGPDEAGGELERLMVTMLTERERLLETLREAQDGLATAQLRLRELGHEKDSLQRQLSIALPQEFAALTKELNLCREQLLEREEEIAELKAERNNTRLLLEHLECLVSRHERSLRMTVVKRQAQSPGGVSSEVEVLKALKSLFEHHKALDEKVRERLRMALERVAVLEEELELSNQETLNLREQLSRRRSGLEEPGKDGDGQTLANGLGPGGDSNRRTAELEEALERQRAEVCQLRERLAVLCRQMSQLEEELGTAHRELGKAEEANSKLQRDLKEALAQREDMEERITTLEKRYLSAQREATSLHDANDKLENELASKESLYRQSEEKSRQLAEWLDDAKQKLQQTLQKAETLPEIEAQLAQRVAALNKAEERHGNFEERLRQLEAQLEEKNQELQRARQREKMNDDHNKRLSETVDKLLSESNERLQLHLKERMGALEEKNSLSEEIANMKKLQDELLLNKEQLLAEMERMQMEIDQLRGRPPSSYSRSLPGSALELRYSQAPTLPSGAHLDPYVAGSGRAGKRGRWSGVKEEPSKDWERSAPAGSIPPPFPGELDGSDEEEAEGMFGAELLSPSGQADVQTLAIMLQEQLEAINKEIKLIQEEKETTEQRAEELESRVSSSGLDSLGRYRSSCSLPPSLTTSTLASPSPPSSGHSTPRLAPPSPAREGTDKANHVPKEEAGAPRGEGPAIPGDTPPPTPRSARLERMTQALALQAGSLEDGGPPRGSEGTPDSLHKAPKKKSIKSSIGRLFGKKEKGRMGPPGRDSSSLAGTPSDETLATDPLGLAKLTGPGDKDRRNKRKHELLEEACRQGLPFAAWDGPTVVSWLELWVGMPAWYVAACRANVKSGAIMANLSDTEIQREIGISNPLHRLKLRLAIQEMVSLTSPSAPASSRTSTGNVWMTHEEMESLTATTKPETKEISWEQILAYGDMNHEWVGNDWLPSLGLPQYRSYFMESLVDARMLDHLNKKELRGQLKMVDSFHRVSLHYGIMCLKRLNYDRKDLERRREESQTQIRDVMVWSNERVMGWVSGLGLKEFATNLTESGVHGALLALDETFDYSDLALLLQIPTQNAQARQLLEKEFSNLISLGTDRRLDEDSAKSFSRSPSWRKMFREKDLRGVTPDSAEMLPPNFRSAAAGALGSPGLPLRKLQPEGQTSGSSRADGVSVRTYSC
UniProt O43159: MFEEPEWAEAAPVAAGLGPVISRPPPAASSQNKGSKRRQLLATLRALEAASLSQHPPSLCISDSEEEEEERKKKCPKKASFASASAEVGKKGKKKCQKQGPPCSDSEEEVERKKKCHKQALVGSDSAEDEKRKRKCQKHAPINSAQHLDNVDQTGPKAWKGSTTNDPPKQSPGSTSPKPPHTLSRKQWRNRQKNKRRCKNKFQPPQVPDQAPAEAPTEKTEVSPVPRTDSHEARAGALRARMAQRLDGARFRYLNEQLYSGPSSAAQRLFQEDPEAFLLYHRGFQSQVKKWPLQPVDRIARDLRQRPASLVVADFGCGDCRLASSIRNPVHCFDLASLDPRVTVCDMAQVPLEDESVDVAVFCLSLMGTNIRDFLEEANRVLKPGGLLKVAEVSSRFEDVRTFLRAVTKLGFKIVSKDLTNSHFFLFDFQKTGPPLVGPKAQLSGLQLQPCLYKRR
UniProt O75083: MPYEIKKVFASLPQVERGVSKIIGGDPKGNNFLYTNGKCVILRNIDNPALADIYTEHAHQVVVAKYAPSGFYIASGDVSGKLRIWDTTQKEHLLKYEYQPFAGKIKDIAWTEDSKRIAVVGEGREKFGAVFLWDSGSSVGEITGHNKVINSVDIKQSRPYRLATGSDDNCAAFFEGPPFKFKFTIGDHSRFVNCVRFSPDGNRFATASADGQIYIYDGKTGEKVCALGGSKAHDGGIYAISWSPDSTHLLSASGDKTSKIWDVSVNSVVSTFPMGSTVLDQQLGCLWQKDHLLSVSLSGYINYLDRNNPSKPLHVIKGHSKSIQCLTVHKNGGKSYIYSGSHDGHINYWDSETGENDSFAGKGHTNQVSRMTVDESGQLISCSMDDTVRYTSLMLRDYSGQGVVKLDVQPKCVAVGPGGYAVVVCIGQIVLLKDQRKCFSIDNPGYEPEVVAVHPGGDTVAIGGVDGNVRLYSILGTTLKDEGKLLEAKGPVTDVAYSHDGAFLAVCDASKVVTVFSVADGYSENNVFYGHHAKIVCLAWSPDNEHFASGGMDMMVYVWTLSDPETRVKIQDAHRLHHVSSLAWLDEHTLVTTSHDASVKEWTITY

Compound in the assay: Cc1nc(Nc2ncc(C(=O)Nc3c(C)cccc3Cl)s2)cc(N2CCN(CCO)CC2)n1 [dasatinib]
As to the kind of experiment: log2 fold change of tryptic peptide abundance, ligand vs vehicle (limited proteolysis) (log2 ratio); higher = more trypsin-susceptible (destabilized). As to conditions: ligand concentration: 5 uM; sample: K562 cleared lysate.
In the case of “SS18L1 (peptide sequence: SVAFASARPR, peptide start residue: 2) (UniProt O75177)”, the log2 fold change was -0.238.
For the target “OPA1 (peptide sequence: SPVKVTLSEGPHHVALFK, peptide start residue: 325) (UniProt O60313)”, the log2 fold change worked out at 0.427.
On to “RGS10 (peptide sequence: KRPPSDIHDSDGSSSSSHQSLK, peptide start residue: 12) (UniProt O43665)”, for which the log2 fold change was determined as 0.253.
Turning to “SLC19A2 (peptide sequence: AAAAAATVLLR, peptide start residue: 11) (UniProt O60779)”, the log2 fold change was -0.132.
The value for “UniProt O75419 (peptide sequence: SNLDKLYHGLELAK, peptide start residue: 407)” was -0.125; that for “PPFIA3 (peptide sequence: MNDDHNKR, peptide start residue: 422) (UniProt O75145)” was 0.688; that for “UniProt O43159 (peptide sequence: KWPLQPVDR, peptide start residue: 290)” was -0.419.
The value for “WDR1 (peptide sequence: YEYQPFAGK, peptide start residue: 96) (UniProt O75083)” was -0.209.

The values above are taken from the supplement of paper PMC12819154, “High-throughput peptide-centric local stability assay extends protein–ligand identification to membrane proteins, tissues and bacteria” (Nature Structural & Molecular Biology, 2025).
